PubChem BioAssay AID1259405 | NCATS | 2018
Shown is a random part of about 50,000 deposited reagents. In the full data, about 4,000 (8%) were called active. 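Mouse siRNA library applied to hamster cells; one well for each siRNA.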 Entries without a mark were called inactive. The numbers tell different reagents against one gene apart. Further read-outs or replicates are left out here.

Test: 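Silenced genes that increase secreted GFP made by CHO cells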 (primary screen)
System: Chinese hamster CHO-K1 ovary cells with stable secreted eGFP expression
Knock-down reagent: single siRNA against mouse genes, 0.8 pmol siRNA per well (2 µl of 400 nM stock)
Duration: 3 days
Detection: 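Percent of the per-plate non-targeting control median for intracellular GFP per well by laser scanning cytometry and for cell viability by ATP luminescence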
Scale: GFP, % of control: higher = more GFP per well, higher productivity
Active means: 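a knock-down is called active if GFP reaches 120% or more of non-targeting control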

GFP, % of control, by gene symbol and reagent
Atp23: #1 91.1; #2 118
Recql4: #1 121 (active); #2 115; #3 41.9
Klra10: #1 47.7; #2 69.8; #3 80.5
Vps37a: #1 66.9; #2 53.1; #3 79.3
Nostrin: #1 99.2; #2 178 (active); #3 90.9
Klk1b3: #1 93.1; #2 61.3; #3 44.6
Arsa: #1 90.9; #2 76.8; #3 64.8
Dsg1b: #1 100; #2 122 (active); #3 52
Hfe: #1 134 (active); #2 65; #3 84.1
Scnn1g: #1 40.8; #2 100; #3 87.1
Mstn: #1 89.5; #2 131 (active); #3 86.2
Tbr1: #1 52.2; #2 71.5; #3 58
Gpr158: #1 102; #2 106
Rnf128: #1 86.6; #2 33.4; #3 69.6
A330008L17Rik: #1 77.2; #2 79.7; #3 76.9
Pnn: #1 53.9; #2 57.5; #3 78.4
Cars1: #1 62.6; #2 60.7; #3 36.4
Senp6: #1 62.1; #2 122 (active); #3 57.4
Enah: #1 46.3; #2 58.5; #3 85.3
Slc37a1: #1 105; #2 48.2; #3 59.9
Scaf1: #1 115; #2 97.2; #3 118
Tnfaip8l3: #1 65.5; #2 83.8; #3 118
Syt12: #1 78.2; #2 111
Pycr2: #1 78.5; #2 119; #3 76.4
Mtmr11: #1 95.1; #2 96.5; #3 82.2
Slc38a9: #1 39.9; #2 107; #3 100
Flad1: #1 84.9; #2 81.7
Plaur: #1 60.5; #2 87.7; #3 75.5
Vcpip1: #1 65.1; #2 111; #3 95.4
Hmgxb3: #1 73.1; #2 38.4; #3 61.3
Map2k1: #1 112
Iba57: #1 106; #2 35.8; #3 80.2; #4 76.6; #5 62.5; #6 50.2
Spef2: #1 59.1; #2 77.4; #3 185 (active)
Hadhb: #1 37.1; #2 96.2; #3 95.7
Sgk2: #1 54.7
Znhit2: #1 99.1; #2 94.5; #3 77.8
Rufy1: #1 123 (active); #2 103; #3 71.2
Pik3c2g: #1 51

Laid out differently: entries from further up.
{"gene symbol": "Nostrin", "reagent no.": 3, "GFP, % of control": 90.9}
{"gene symbol": "Klk1b3", "reagent no.": 1, "GFP, % of control": 93.1}
{"gene symbol": "Klk1b3", "reagent no.": 2, "GFP, % of control": 61.3}
{"gene symbol": "Klk1b3", "reagent no.": 3, "GFP, % of control": 44.6}
{"gene symbol": "Arsa", "reagent no.": 1, "GFP, % of control": 90.9}
{"gene symbol": "Arsa", "reagent no.": 2, "GFP, % of control": 76.8}
{"gene symbol": "Arsa", "reagent no.": 3, "GFP, % of control": 64.8}
{"gene symbol": "Dsg1b", "reagent no.": 1, "GFP, % of control": 100}
{"gene symbol": "Dsg1b", "reagent no.": 2, "GFP, % of control": "122 (active)"}
{"gene symbol": "Dsg1b", "reagent no.": 3, "GFP, % of control": 52}
{"gene symbol": "Hfe", "reagent no.": 1, "GFP, % of control": "134 (active)"}
